{
  "sequences": {"note": "Amino acid sequences for entries named in this document (tags omitted). A change or cut given only in a name is not applied to a line headed by its entry.", "UniProt P08482": "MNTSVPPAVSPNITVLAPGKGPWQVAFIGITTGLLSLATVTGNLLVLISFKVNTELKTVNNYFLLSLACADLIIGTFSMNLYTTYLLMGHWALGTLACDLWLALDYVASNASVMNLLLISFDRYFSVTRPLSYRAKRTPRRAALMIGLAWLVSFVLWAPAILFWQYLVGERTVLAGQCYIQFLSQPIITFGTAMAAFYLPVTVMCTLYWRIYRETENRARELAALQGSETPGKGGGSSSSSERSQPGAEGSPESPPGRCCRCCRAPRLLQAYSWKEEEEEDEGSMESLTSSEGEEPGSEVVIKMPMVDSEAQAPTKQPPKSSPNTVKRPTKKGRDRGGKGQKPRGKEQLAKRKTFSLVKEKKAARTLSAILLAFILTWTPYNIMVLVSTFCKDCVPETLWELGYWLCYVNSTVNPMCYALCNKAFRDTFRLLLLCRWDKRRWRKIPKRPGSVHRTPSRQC"},
  "source": "PubChem BioAssay AID1488",
  "about": "(Vanderbilt High Throughput Screening Facility, 2009)",
  "note": "Among all 1,700 compounds or so, about 310 (18%) were called active. The shares of active, inactive and inconclusive entries below differ from those in the screen.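 Rule for the calls: active = fluorescence change differs from the solvent-only DMSO control mean at a set confidence level in both duplicate runs; inconclusive = differs from solvent-only control mean in just one of two runs; inactive = the rest.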",
  "data": [
    {"target": "Muscarinic acetylcholine receptor M1 (Rattus norvegicus) (UniProt P08482)", "experiment": "rat M1 muscarinic receptor agonists, confirmation, CHO-M1 cells, Fluo-4 calcium, duplicate retest (AID 1488);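 note: an EC20 dose of acetylcholine follows compound addition during the same imaging run; raw fluorescence intensity difference in instrument units with no normalization to controls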", "conditions": "Fluo-4 calcium fluorescence, agonist mode, at 10 µM, actives lie on both sides", "values": [
      {"smiles": "CCOC(=O)C1CCCN(CC(O)COc2ccc(OC)cc2C(C)(C)C)C1", "note": "(configuration not stated)", "fluorescence change (max-min)": "active: 335"},
      {"smiles": "CSc1nc2ccc(S(=O)(=O)Nc3c(C)n(C)n(-c4ccccc4)c3=O)cc2s1", "fluorescence change (max-min)": "inconclusive: -18.6"},
      {"smiles": "O=C(Nc1ccccc1C(=O)NC(Cc1c[nH]c2ccccc12)C(=O)O)c1ccco1", "note": "(configuration not stated)", "fluorescence change (max-min)": "active: -28.1"},
      {"smiles": "Cc1ccc(S(=O)(=O)N2CCN(S(C)(=O)=O)C2c2ccccc2)cc1", "note": "(configuration not stated)", "fluorescence change (max-min)": "active: -41.2"},
      {"smiles": "C=CCn1c(=O)/c(=C/c2ccc(O)cc2)s/c1=C(/C#N)c1nnc2n1CCCCC2", "fluorescence change (max-min)": "active: 89.7"},
      {"smiles": "CC1(C)Cc2c(C#N)c(N3CCOCC3)nc(Cc3ccccc3)c2CO1", "fluorescence change (max-min)": "inactive: -6.53"},
      {"smiles": "CCOC(=O)c1c(C)n(C)c2ccc(OCC(O)Cn3nc(C)cc3C)cc12", "note": "(configuration not stated)", "fluorescence change (max-min)": "inconclusive: -9.68"},
      {"smiles": "CSc1nc(-c2ccco2)cc(-c2ccccc2)c1C#N", "fluorescence change (max-min)": "inconclusive: -20.7"},
      {"smiles": "O=C(Nc1ccccc1N1CCN(C(=O)c2ccccc2)CC1)c1ccc2c(c1)OCO2", "fluorescence change (max-min)": "inactive: -2.28"},
      {"smiles": "O=C1CN(C(=O)COC(=O)c2ccccc2NC(=O)c2ccco2)c2ccccc2N1", "fluorescence change (max-min)": "inconclusive: -16.3"},
      {"smiles": "O=C(Nc1cccc(Cl)c1)Nc1nccs1", "fluorescence change (max-min)": "inactive: -11.3"},
      {"smiles": "CCOC(=O)N1CCN(CC(O)COc2ccccc2C(C)C)CC1", "note": "(configuration not stated)", "fluorescence change (max-min)": "active: 64.8"},
      {"smiles": "COc1ccc(-n2c(C)cc(C(=O)COC(=O)Cn3cnc4ccccc43)c2C)cc1", "fluorescence change (max-min)": "inconclusive: -18.7"},
      {"smiles": "COc1nc(N(c2ccccc2)c2ccccc2)nc(-n2ccnc2)n1", "fluorescence change (max-min)": "inactive: -10.7"},
      {"smiles": "C=C(C)Cn1c(=O)c2c(nc3n2CCN3c2cccc(Cl)c2C)n(C)c1=O", "fluorescence change (max-min)": "inactive: -11.7"},
      {"smiles": "CCOc1nc(NCCc2ccc(OC)c(OC)c2)nc(NC(C)(C)CO)n1", "fluorescence change (max-min)": "inconclusive: -23.7"},
      {"smiles": "COc1ccc(-c2cn3cc(C)ccc3n2)cc1OC", "fluorescence change (max-min)": "inconclusive: -17.8"},
      {"smiles": "COC(=O)c1c(NC(=O)CN2CCN(c3ccccc3)CC2)c2c(C)cccc2n1C", "fluorescence change (max-min)": "active: -25.1"},
      {"smiles": "COc1ncnc2c1N=C1CC(C)(C)CC(N)=C1S2", "fluorescence change (max-min)": "active: 175"},
      {"smiles": "CCOC(=O)CSc1nc2c(sc(=S)n2CCc2ccccc2)c(=O)n1Cc1ccco1", "fluorescence change (max-min)": "active: -34.1"},
      {"smiles": "O=C(O)c1ccccc1NCN1C(=O)C2CC=C(Cl)CC2C1=O", "note": "(configuration not stated)", "fluorescence change (max-min)": "active: -25.6"},
      {"smiles": "Cc1c(C(=O)NCCC2=CCCCC2)oc2ccc(S(=O)(=O)N3CCOCC3)cc12", "fluorescence change (max-min)": "inconclusive: -19.1"},
      {"smiles": "Cc1cc(=O)oc2ccc(OC(=O)c3cccc(S(=O)(=O)N4CCOCC4)c3)cc12", "fluorescence change (max-min)": "inconclusive: -14.9"},
      {"smiles": "Nc1nc(CSc2n[nH]c(-c3ccccc3)n2)nc(Nc2ccccc2)n1", "fluorescence change (max-min)": "active: -42.4"},
      {"smiles": "O=C(NCc1ccco1)C(Cc1ccccc1)N1C(=O)C2C3C=CC(C3)C2C1=O", "note": "(configuration not stated)", "fluorescence change (max-min)": "inconclusive: -19.9"},
      {"smiles": "COC(=O)c1c(=O)n(O)c2ccc(OC)cc2[n+]1[O-]", "fluorescence change (max-min)": "active: 117"},
      {"smiles": "NC(=O)CSc1nc2scc(-c3ccco3)c2c(=O)n1-c1ccccc1", "fluorescence change (max-min)": "inconclusive: -18.9"},
      {"smiles": "O=C(CSCC(=O)N1CCCCC1)Nc1nc(-c2ccc(Cl)s2)cs1", "fluorescence change (max-min)": "inconclusive: -16.3"},
      {"smiles": "O=C1c2ccccc2C(=O)N1SC1CCCCC1", "fluorescence change (max-min)": "inconclusive: -15.5"},
      {"smiles": "CCOC(=O)/C(C#N)=C1\\Nc2ccccc2N=C1N(CC(C)C)CC(C)C", "fluorescence change (max-min)": "inconclusive: -22.5"},
      {"smiles": "O=C(Nc1ccc(O)cc1)c1cc2n(n1)C(C(F)(F)F)CC(c1ccco1)N2", "note": "(configuration not stated)", "fluorescence change (max-min)": "inactive: -10.5"},
      {"smiles": "Cc1csc(SCC(=O)Nc2cc(C(C)(C)C)nn2-c2ccccc2)n1", "fluorescence change (max-min)": "inconclusive: -28.8"},
      {"smiles": "CCOC(=O)CNC(=O)CSc1nnc(-c2ccco2)n1N", "fluorescence change (max-min)": "active: -27.2"},
      {"smiles": "COc1ccc2cc(C(=O)NCc3ccco3)c(=Nc3ccc(C(=O)O)cc3)oc2c1", "fluorescence change (max-min)": "inconclusive: -26.1"},
      {"smiles": "O=C(Nc1ccc(Cc2ccncc2)cc1)c1ccc(S(=O)(=O)N2CCOCC2)cc1", "fluorescence change (max-min)": "inactive: -17.4"},
      {"smiles": "COc1ccc2nc(N3CCCC(O)C3)c(C#N)cc2c1", "note": "(configuration not stated)", "fluorescence change (max-min)": "active: 206"},
      {"smiles": "Cc1cccc2cc(C(c3nnnn3Cc3ccccc3)N3CCN(c4ccccc4)CC3)c(=O)[nH]c12", "note": "(configuration not stated)", "fluorescence change (max-min)": "inconclusive: -26.8"},
      {"smiles": "CC(C)(C)C(=O)c1sc(Nc2ccccc2)nc1N", "fluorescence change (max-min)": "inconclusive: -25.9"},
      {"smiles": "CCN1CC=C2C(C#N)=C(N)C(C#N)(C#N)[C@H](c3cccc(OC)c3OC)[C@H]2C1", "fluorescence change (max-min)": "active: 307"},
      {"smiles": "Cc1ccc(CNC(=O)c2cc3c(=O)n4ccccc4nc3n(Cc3ccco3)c2=N)cc1", "fluorescence change (max-min)": "active: 198"},
      {"smiles": "CCOC(=O)C1=C(O)CSC1=Nc1ccc(Cl)cc1", "fluorescence change (max-min)": "inconclusive: -37.1"},
      {"smiles": "COCCNc1ncnc2c1cnn2Cc1ccc(Cl)cc1", "fluorescence change (max-min)": "inconclusive: -21.4"},
      {"smiles": "N#CC1(c2nc3ccccc3[nH]2)CC1c1ccc2c(c1)OCO2", "note": "(configuration not stated)", "fluorescence change (max-min)": "active: -33.6"},
      {"smiles": "COc1ccccc1C(=O)Nc1cccc(-c2cn3ccsc3n2)c1", "fluorescence change (max-min)": "inconclusive: -14.8"},
      {"smiles": "C=CCn1c(=O)/c(=C/c2cc(OC)c(OC)c(OC)c2)s/c1=C(/C#N)c1nc2ccccc2n1C", "fluorescence change (max-min)": "inconclusive: 51.9"},
      {"smiles": "CCOC(=O)c1c(N)n(CCOC(=O)c2cccs2)c2nc3ccccc3nc12", "fluorescence change (max-min)": "inactive: -2.54"},
      {"smiles": "CCOC(=O)c1ccc(NC(=O)c2cccc(S(=O)(=O)N3CCOCC3)c2)cc1", "fluorescence change (max-min)": "inactive: -9.2"},
      {"smiles": "Cc1cccc(N2CCN(C(=O)c3ccc(CS(=O)(=O)c4ccccc4C)o3)CC2C)c1", "note": "(configuration not stated)", "fluorescence change (max-min)": "inconclusive: -29.9"},
      {"smiles": "CCOC(=O)N1CCN(c2cc(NCCC(=O)O)c3c4c(onc24)-c2ccccc2C3=O)CC1", "fluorescence change (max-min)": "inactive: -7.36"},
      {"smiles": "O=C(CCCc1nc(-c2ccc(Cl)cc2)no1)N1CCOCC1", "fluorescence change (max-min)": "inconclusive: -15.9"},
      {"smiles": "CC(=O)Nc1ccccc1OCC(=O)c1cc(C)n(Cc2cccs2)c1C", "fluorescence change (max-min)": "inactive: 22.3"},
      {"smiles": "O=C(O)C1CCC(=O)N1C1CCCC1", "note": "(configuration not stated)", "fluorescence change (max-min)": "active: -29"},
      {"smiles": "c1ccc(Cn2nnnc2C(c2cccnc2)N2CCN(c3ccccc3)CC2)cc1", "note": "(configuration not stated)", "fluorescence change (max-min)": "inconclusive: -15.7"},
      {"smiles": "COC(=O)c1c(NC(=O)c2ccoc2C)sc2c1CCC2", "fluorescence change (max-min)": "inactive: 0.418"},
      {"smiles": "Cc1ccsc1-c1nc(CSCC(=O)N2CCN(c3ccccc3)CC2)c(C)o1", "fluorescence change (max-min)": "active: -38.6"},
      {"smiles": "CC(C)(C)NC(=O)c1ccc2c(c1)C(=O)N(C1CCCCC1)C2=O", "fluorescence change (max-min)": "inconclusive: -12.7"},
      {"smiles": "COc1[nH]c(/N=C/c2ccccc2)c(C#N)c1C#N", "fluorescence change (max-min)": "inconclusive: 62.4"}
    ]}
  ]
}
